These are yes or no findings as the source states them, for the method shown. In cells and extracts the contact can be indirect. Some entries that bind do so weakly or less than the wild type. Blank lines part the entries; values can stand above or below the substance they belong to.
Legend:
[1] = biological target: Nup358 (human (endogenous in HEK293T)) (UniProt P49792); assay: co-IP
[2] = biological target: VAPB (human (endogenous in HeLa)) (UniProt O95292); assay: proximity ligation
[3] = biological target: Nup358 (human (endogenous in HeLa)) (UniProt P49792); assay: proximity ligation
[4] = biological target: Nup358 (human (endogenous in HeLa)) (UniProt P49792); assay: co-IP
[5] = biological target: T1, PTPIP51 (human (endogenous in HeLa)) (UniProt Q96TC7); assay: proximity ligation
T1 sequence: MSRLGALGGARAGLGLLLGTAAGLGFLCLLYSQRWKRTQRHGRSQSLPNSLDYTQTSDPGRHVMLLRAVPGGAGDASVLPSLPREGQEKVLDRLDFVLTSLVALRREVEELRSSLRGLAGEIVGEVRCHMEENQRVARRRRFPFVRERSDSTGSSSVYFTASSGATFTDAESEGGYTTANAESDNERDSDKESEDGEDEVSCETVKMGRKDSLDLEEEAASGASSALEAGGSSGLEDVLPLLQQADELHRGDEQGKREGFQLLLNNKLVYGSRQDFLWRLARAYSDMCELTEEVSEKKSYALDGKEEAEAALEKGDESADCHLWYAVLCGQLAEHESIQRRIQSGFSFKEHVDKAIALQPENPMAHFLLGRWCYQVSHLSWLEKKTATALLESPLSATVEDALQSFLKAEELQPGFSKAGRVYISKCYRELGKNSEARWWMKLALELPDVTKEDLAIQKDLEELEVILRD

The chains behind the UniProt entries cited, without tags or fusion partners.
UniProt P49792: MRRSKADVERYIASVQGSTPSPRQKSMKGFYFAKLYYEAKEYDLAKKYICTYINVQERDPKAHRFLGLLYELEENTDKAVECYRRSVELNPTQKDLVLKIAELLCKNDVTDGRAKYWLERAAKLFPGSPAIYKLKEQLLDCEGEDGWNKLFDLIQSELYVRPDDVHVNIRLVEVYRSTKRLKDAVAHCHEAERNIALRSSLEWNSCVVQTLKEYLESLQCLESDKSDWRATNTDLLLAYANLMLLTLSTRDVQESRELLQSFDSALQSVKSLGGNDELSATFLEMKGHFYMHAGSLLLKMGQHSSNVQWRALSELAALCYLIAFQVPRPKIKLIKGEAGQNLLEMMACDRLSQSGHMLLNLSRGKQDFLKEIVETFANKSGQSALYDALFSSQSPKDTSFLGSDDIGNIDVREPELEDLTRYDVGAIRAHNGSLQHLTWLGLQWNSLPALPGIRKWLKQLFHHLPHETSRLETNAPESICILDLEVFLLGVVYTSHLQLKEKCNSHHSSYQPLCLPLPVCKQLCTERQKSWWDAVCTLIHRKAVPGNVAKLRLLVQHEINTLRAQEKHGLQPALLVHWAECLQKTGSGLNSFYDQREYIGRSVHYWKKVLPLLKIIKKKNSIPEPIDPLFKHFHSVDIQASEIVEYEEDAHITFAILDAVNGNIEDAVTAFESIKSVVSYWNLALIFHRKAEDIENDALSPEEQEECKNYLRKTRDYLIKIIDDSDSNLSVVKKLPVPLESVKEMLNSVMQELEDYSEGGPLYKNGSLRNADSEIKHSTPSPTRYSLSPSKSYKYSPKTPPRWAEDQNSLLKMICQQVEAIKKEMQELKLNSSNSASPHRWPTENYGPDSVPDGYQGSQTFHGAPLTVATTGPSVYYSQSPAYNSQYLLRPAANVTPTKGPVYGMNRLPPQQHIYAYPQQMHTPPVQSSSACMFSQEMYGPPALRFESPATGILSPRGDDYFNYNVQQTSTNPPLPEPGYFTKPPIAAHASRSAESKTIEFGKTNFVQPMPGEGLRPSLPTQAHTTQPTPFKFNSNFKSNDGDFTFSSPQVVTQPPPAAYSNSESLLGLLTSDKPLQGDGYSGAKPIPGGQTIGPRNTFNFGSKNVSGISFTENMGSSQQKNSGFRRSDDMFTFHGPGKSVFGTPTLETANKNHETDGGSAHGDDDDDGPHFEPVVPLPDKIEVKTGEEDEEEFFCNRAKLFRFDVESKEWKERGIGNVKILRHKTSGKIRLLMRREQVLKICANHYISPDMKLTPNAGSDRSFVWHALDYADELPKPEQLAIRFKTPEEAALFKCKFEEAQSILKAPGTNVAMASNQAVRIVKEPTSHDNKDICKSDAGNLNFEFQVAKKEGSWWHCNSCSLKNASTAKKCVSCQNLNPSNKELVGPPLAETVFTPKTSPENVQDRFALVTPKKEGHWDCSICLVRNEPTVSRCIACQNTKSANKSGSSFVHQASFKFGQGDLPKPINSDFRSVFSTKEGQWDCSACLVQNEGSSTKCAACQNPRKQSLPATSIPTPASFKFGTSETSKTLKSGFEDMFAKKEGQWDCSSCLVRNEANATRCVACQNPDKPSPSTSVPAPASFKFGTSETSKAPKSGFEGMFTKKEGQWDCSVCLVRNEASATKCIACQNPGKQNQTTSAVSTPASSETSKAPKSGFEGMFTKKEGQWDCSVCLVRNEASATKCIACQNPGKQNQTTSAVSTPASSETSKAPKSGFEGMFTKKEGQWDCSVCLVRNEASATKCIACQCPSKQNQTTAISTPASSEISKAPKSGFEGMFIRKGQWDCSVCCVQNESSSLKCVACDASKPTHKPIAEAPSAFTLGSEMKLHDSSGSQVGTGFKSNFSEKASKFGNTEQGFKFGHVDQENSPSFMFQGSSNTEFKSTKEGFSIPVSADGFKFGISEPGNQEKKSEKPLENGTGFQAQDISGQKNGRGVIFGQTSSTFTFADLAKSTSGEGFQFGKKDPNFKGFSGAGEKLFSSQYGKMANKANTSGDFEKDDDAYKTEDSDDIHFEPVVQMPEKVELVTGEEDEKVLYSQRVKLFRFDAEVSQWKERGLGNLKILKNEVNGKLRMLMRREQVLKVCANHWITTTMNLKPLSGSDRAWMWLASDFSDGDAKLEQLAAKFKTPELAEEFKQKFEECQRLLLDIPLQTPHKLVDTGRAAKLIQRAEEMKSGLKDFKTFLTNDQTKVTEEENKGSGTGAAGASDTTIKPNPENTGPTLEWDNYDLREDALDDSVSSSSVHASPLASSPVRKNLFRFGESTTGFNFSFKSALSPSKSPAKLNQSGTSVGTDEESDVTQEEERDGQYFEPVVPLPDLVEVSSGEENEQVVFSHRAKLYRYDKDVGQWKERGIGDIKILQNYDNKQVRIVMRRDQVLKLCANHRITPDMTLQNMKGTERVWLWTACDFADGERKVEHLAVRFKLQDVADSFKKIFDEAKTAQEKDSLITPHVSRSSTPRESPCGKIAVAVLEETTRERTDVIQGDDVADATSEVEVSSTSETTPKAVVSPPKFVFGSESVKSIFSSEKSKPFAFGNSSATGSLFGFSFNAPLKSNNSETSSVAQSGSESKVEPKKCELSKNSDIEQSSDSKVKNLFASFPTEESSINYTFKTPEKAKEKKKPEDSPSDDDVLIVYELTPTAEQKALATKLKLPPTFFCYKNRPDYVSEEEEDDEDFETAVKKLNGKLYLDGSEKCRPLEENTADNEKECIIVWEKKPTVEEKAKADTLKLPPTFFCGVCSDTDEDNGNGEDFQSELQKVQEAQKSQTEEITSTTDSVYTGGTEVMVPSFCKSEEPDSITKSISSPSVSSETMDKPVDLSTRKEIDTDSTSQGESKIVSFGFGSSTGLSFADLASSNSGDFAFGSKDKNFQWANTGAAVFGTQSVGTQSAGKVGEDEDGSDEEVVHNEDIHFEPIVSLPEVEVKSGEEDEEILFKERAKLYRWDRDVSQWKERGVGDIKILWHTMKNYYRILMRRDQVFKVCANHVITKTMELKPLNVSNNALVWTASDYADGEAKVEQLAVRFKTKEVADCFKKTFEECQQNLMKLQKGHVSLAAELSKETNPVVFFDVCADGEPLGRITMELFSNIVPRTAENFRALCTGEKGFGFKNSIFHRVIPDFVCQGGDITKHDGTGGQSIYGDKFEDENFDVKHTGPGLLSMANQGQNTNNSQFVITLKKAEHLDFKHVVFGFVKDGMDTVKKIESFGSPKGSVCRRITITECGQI
UniProt O95292: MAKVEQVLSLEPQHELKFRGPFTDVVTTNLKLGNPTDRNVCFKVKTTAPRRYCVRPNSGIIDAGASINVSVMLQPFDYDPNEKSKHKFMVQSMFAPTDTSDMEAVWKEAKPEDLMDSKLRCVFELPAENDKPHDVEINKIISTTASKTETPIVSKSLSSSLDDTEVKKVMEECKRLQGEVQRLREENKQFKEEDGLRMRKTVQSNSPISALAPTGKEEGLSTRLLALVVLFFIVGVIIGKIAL
UniProt Q14573: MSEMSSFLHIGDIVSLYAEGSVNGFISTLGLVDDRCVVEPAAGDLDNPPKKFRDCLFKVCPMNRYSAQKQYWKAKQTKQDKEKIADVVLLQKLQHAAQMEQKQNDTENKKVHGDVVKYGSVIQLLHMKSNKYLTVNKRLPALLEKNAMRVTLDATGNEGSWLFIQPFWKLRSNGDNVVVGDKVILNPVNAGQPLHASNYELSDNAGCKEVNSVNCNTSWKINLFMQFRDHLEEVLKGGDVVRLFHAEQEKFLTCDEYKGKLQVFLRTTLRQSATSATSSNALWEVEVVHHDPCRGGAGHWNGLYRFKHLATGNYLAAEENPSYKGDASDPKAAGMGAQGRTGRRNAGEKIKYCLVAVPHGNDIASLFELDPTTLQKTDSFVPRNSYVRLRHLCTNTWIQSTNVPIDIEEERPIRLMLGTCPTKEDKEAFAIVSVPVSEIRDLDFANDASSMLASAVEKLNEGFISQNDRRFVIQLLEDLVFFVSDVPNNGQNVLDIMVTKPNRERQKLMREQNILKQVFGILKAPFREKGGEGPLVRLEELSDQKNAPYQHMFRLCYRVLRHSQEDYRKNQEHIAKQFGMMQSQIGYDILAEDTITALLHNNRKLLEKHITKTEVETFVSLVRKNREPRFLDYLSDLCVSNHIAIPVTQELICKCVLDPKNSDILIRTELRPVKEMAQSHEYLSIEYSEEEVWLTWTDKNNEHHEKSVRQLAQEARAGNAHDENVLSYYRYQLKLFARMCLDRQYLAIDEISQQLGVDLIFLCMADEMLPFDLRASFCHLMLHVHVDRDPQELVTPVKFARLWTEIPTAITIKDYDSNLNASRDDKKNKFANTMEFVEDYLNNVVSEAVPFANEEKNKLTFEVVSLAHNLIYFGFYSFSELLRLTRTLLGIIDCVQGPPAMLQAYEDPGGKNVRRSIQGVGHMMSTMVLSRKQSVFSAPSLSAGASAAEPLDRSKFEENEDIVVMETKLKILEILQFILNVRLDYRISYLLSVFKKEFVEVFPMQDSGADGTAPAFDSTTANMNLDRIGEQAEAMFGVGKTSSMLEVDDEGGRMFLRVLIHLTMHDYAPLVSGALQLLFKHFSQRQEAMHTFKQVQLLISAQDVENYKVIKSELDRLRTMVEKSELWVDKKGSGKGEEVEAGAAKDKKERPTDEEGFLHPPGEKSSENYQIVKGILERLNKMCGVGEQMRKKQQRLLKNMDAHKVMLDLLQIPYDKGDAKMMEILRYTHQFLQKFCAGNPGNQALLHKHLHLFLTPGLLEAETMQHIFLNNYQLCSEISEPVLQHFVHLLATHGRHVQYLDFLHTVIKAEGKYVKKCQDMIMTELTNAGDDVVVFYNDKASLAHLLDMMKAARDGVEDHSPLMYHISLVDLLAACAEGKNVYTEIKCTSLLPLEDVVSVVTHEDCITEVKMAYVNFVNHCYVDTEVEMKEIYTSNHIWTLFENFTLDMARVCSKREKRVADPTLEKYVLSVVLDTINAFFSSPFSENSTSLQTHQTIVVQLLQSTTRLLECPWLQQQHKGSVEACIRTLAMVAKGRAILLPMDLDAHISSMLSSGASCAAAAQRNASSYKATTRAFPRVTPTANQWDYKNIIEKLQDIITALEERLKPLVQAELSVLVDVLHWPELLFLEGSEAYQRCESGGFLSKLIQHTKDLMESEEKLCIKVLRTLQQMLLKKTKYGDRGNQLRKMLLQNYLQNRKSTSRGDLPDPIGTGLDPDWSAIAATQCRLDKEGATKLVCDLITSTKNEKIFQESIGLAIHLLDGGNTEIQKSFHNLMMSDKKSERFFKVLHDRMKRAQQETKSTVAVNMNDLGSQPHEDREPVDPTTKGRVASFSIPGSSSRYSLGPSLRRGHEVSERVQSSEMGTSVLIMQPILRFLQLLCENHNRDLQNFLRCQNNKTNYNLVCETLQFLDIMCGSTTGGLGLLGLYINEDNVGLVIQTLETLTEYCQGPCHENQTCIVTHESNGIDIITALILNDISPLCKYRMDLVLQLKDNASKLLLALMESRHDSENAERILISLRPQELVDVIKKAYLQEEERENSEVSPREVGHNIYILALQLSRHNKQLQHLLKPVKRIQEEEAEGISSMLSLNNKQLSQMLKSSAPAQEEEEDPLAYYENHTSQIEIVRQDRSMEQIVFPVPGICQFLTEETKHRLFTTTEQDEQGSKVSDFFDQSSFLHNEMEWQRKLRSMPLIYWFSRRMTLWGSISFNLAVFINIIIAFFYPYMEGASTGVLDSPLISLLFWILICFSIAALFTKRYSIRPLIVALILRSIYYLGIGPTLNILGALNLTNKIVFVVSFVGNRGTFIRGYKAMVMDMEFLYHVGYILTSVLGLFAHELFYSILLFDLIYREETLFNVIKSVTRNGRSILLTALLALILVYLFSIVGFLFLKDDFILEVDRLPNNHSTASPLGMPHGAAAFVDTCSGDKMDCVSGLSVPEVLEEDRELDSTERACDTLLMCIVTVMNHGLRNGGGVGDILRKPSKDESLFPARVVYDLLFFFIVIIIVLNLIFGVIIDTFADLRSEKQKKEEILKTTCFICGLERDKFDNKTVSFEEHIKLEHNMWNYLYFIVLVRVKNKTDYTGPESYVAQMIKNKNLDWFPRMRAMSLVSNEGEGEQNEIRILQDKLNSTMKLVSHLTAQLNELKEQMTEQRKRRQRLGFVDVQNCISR

[6] = biological target: T1, PTPIP51 (human (endogenous in HeLa)); assay: co-IP

binding [1]: binds
Substance: myc-VAPB (from UniProt O95292 1-243)

binding [2]: binds
Substance: Nup358 (from UniProt P49792 1-3224)

binding [3]: binds
binding [4]: binds
Substance: IP3R3 (from UniProt Q14573 1-2671)

binding [5]: binds
binding [6]: binds
Substance: VAPB (from UniProt O95292 1-243)
